Test: Solubility of the drug substance in water
Format: physicochemical

Compound: C=C(C)[C@@H]1CCC(C)=C[C@H]1c1c(O)cc(CCCCC)cc1O [CBD, Cannabidiol]
- solubility in water: insoluble in water

Reference: US20250025482A1, “USE OF C[…] THE TREATMENT OF EPILEPSY” (GW Research Limited, priority 2021, published 2025)
